# From PubChem BioAssay AID445 (National Center for Advancing Translational Sciences (NCATS), 2006)
# The list shows a part of the results. These are further read-outs of the screen, such as a control signal, another cell line or another target. No call is given for them. Most of these compounds were active or inconclusive in the main read-out, so they are no random draw. Potencies come from curve fits of mixed quality, noted in brackets.
# Assay: IkB Signaling
# Settings: ABC-DLBCL IkBa-CBG/CBR dual luciferase ratio (green luciferase fused to IkBa over red control in OCI-Ly3 lymphoma cells), 4 h; measured here: control luc red channel unless noted
# Procedure, shortened: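 Luminescence ratio of IκBα-fused green versus native red beetle luciferase in OCI-Ly3 cells, 4 h post-doxycycline with compound; red signal alone, scaled from basal (0%) to zero light (-100%), flagged nonspecific or cytotoxic effects.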
row,SMILES,AC50
1,Cc1ccccc1-n1nc(CO)c(C(=O)NCCc2ccccc2)n1,"39.8 µM [falling, single point]"
2,CC1CCc2c(sc(NC(=O)c3ccccc3)c2C(=O)Nc2ccccc2)C1 (centres undefined),"0.251 µM [falling, full curve]"
3,COc1ccc(OC)c(CNc2ncnc3onc(-c4ccc(Cl)cc4)c23)c1,"3.16 µM [rising, single point]"
4,CCC(c1nnnn1CCc1ccccc1)N(Cc1ccco1)Cc1cc2cc(C)cc(C)c2[nH]c1=O (centres undefined),"10 µM [falling, partial curve]"
5,COc1ccc(CCNC(=O)c2cc3c(=O)n4ccccc4nc3n2C)cc1,"12.6 µM [falling, partial curve]"
6,COc1ccc(NC(=O)Cn2cc(S(=O)(=O)c3ccccc3)c(=O)c3cc(C)ccc32)cc1Cl,"7.94 µM [rising, single point]"
7,Cc1ccc2oc(-c3ccc(NC(=O)c4cccnc4)cc3)nc2c1,"15.8 µM [falling, partial curve]"
8,COc1cccc(N2CCN(C(=O)c3ccc4c(Cl)c5c(nc4c3)CCCC5)CC2)c1,"12.6 µM [falling, partial curve]"
9,CCC(=O)N1CCc2cc(Br)cc(S(=O)(=O)N3CCC(C(=O)Nc4cccc(C)c4)CC3)c21,"1.26 µM [falling, full curve]"
10,O=C(CSc1nnc2scc(-c3ccccc3)n12)N1CCN(Cc2ccccc2)CC1,"12.6 µM [falling, partial curve]"
11,COc1cccc(NC(=O)Cn2nc(-c3ccncc3)ccc2=O)c1,"0.2 µM [falling, full curve, poor fit]"
12,CCOc1ccc(NC(=O)C(=O)NCCc2sc(-c3ccc(C)cc3)nc2C)cc1,"15.8 µM [rising, partial curve]"
13,CC(C)c1ccc(C(=O)CC2(O)C(=O)N(CCc3ccccc3)c3ccc(Cl)cc32)cc1 (centres undefined),"12.6 µM [falling, partial curve]"
14,COc1ccc(OC)c(NC(=O)C2CCN(S(=O)(=O)c3c(C)noc3/C=C/c3ccc(C)cc3)CC2)c1,"2.51 µM [falling, full curve]"
15,CC(C)(C)/C(O)=C(/C#N)c1nc2ccccc2[nH]1,"25.1 µM [falling, single point]"
16,Cc1cccc(Cn2c(CN3CCC(C(=O)NCc4ccccc4Cl)CC3)cc3ccccc32)c1,"0.398 µM [falling, full curve, poor fit]"
17,Cc1ccc(C(=O)Nc2cc(-c3nc4cc(Cl)ccc4o3)ccc2C)c(C)c1,"5.01 µM [falling, partial curve]"
18,COc1ccc(Cn2c(CNS(=O)(=O)c3ccc(Cl)s3)nc3cccnc32)cc1,"1 µM [rising, single point]"
19,COc1ccc(CN2CCc3nc(N4CCN(c5ccc(F)cc5)CC4)ncc3C2)c(OC)c1OC,"20 µM [falling, single point]"
20,O=C(c1cnn(-c2ccc(F)cc2)c1-n1cccc1)N1CCN(c2cccc(Cl)c2)CC1,"12.6 µM [falling, partial curve]"

row,SMILES,AC50
1,Cc1cccc(OCCCCc2c(C)n[nH]c2C)c1C,"39.8 µM [rising, single point] [measured here: IkB-luc green channel]"
2,Cc1cc(OCC(=O)Nc2ccc(C(=O)OC3CCCCC3)cc2)ccc1Cl,"25.1 µM [rising, partial curve, poor fit]"
3,Fc1ccc(-c2nnn3c2nc(NCc2ccccc2)c2ccccc23)cc1,"0.1 µM [falling, full curve]"
4,Cc1ccccc1N(CC(=O)Nc1ccccc1C(=O)O)S(C)(=O)=O,"1.58 µM [falling, full curve]"
5,O=C1CN(C(=O)c2c(F)cccc2Cl)C(c2ccc(F)cc2)c2cc(Br)ccc2N1 (centres undefined),"20 µM [falling, partial curve]"
6,CN(C(=O)CSc1nc2ccc(NC(=O)c3cccs3)cc2s1)c1ccccc1,"10 µM [falling, partial curve]"
7,Cc1c(N=c2c(=O)c3ccccc3c2=O)c(=O)n(-c2ccccc2)n1C,"39.8 µM [rising, single point] [measured here: IkB-luc green channel]"
8,COC(=O)c1cccc(CN2C(=O)SC(Nc3ccccc3C)C2=O)c1 (centres undefined),"12.6 µM [falling, single point]"
9,CCc1ccc(CNC(=O)C2CCN(C(=O)c3ccc(-n4c(C)cc5ccccc54)s3)CC2)cc1,"15.8 µM [falling, partial curve]"
10,CC(C)C[C@H](NC(=O)OC(C)(C)C)c1nnc(SCC(=O)Nc2ccc(Br)cc2)o1,"12.6 µM [falling, partial curve]"
11,Cc1ccc(NC(=O)C2CCCN(S(=O)(=O)c3ccc4c(c3)CCCC(=O)N4)C2)cc1N(C)C (centres undefined),"12.6 µM [falling, partial curve]"
12,CCCn1c(-c2ccc(OC)cc2)nc2ccccc21,"12.6 µM [falling, partial curve]"
13,COc1cccc(NC(=O)c2ccccc2-c2nc(-c3ccc(Cl)cc3)no2)c1,"3.98 µM [falling, full curve, poor fit]"
14,Cc1ccc(-c2ccc(CCC(=O)O)n2-c2ccc(C)c(Cl)c2)cc1,"15.8 µM [falling, partial curve]"
15,O=C1CCSC2(C(=O)N(Cc3ccccc3)c3ccccc32)N1c1ccccc1 (centres undefined),"12.6 µM [falling, partial curve]"
16,CC(=O)N1c2ccc(S(=O)(=O)NCC3CCC(C(=O)Nc4cccc(C)c4)CC3)cc2CC1C (centres undefined),"25.1 µM [falling, single point]"
17,CCc1ccc2nc(N3CCC(C(=O)NCCC(C)C)CC3)sc2c1,"15.8 µM [falling, partial curve]"
18,CCN(Cc1ccccc1)S(=O)(=O)c1ccc(N2CCCCS2(=O)=O)cc1,"31.6 µM [falling, single point]"
19,COc1ccc(-c2nnc(CSc3nc4ccccc4c(=O)n3CC(C)C)o2)cc1OC,"20 µM [falling, partial curve]"

# 2 entries picked at random from the list so far, as already listed:
row,SMILES,AC50
8,COc1cccc(N2CCN(C(=O)c3ccc4c(Cl)c5c(nc4c3)CCCC5)CC2)c1,"12.6 µM [falling, partial curve]"
19,COc1ccc(CN2CCc3nc(N4CCN(c5ccc(F)cc5)CC4)ncc3C2)c(OC)c1OC,"20 µM [falling, single point]"
